Measured values from ChEMBL document CHEMBL4513154, “CO-ADD screening of Jain University (India) compounds”.
The other results are listed elsewhere or left out. Measured potencies and affinities stand elsewhere.

Each compound was assayed on Pseudomonas aeruginosa. Settings: Concentration 32 ug.mL-1; ASSAY_TEST Inhibition of Bacterial Growth; detection method Absorption (OD600); MEDIA CAMHB; plate type 384well; NBS; CORNING #3640; time 18 hr.

First: Clc1ccc(Cn2c(-c3cscn3)nc3ccccc32)cn1
Second: Clc1ccc2c(c1)nc(-c1cscn1)n2Cc1ccc(Cl)nc1
The Inhibition of the first is higher: 16.53% for the first, -1.6% for the second.

Compound `Clc1ccc(Cn2c(-c3cscn3)nc3c(Cl)cccc32)cn1` has an Inhibition of 7.96%.
